Results taken from paper PMC4371837.
No constants are given. Whether binding was seen depends on the method and setting. Binding seen in cells or lysates may run through a third protein. These calls come from enrichment with a bait or labelling near it, and not all partners need be listed. Values belong to the binder of their own block, whether it stands above or below them.

The chains behind the UniProt entries cited, without tags or fusion partners.
UniProt Q8VIG1: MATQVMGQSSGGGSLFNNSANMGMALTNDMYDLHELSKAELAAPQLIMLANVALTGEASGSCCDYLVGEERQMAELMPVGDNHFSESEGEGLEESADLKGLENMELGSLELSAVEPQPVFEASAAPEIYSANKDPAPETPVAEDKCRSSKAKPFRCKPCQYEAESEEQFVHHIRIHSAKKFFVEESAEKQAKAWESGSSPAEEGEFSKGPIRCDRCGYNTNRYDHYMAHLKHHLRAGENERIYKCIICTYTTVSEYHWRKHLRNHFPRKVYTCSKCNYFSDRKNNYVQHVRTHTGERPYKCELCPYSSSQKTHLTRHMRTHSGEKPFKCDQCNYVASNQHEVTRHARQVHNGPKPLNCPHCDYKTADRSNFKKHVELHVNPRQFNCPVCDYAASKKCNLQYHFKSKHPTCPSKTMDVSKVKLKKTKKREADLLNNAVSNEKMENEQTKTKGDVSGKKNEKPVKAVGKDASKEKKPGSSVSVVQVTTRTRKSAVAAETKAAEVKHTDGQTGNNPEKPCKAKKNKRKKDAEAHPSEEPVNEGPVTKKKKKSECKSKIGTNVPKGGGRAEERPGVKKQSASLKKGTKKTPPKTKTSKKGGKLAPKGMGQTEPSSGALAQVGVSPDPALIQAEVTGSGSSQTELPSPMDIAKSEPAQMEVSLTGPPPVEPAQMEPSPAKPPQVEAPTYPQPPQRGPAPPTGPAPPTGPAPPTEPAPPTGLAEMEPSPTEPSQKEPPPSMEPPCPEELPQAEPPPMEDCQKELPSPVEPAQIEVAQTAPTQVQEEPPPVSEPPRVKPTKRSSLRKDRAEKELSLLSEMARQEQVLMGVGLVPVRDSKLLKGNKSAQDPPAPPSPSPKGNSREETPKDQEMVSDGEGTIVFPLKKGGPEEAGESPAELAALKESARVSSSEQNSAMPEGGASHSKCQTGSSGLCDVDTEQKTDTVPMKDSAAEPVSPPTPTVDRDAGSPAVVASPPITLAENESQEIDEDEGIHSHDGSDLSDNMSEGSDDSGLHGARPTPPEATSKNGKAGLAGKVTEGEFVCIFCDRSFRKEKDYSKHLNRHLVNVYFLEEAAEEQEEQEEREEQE

Molecular target: Flag-BioT-mREST (mouse REST tagged with a biotin acceptor sequence) (mouse) (UniProt Q8VIG1)
Assay: affinity purification with mass spectrometry; biotin-tagged REST captured on streptavidin M-280 magnetic beads from cleared whole-cell lysate of mouse ESCs (clone #60), 4°C, 3 hr, 50 mM Tris-Cl pH 7.5, 150 mM NaCl, 0.5% Triton X-100, 0.5 mM EDTA, 10% glycerol; MudPIT on three independent purifications; parental BirA-J1 cells as control

- binding: binds
B1: Wwox (protein, UniProt Q91WL8 1-414)
chain: MAALRYAGLDDTDSEDELPPGWEERTTKDGWVYYANHTEEKTQWEHPKTGKRKRVAGDLPYGWEQETDENGQVFFVDHINKRTTYLDPRLAFTVDDNPTKPTTRQRYDGSTTAMEILQGRDFTGKVVLVTGANSGIGFETAKSFALHGAHVILACRNLSRASEAVSRILEEWHKAKVEAMTLDLAVLRSVQHFAEAFKAKNVSLHVLVCNAGTFALPWGLTKDGLETTFQVNHLGHFYLVQLLQDVLCRSSPARVIVVSSESHRFTDINDSSGKLDLSRLSPPRSDYWAMLAYNRSKLCNILFSNELHRRLSPRGVTSNAVHPGNMMYSAIHRNSWVYKLLFTLARPFTKSMQQGAATTVYCAVAPELEGLGGMYFNNCCRCLPSEEAQSEETARALWELSERLIQDRLGSPSS

- binding: binds
B2: Pura (protein, UniProt P42669 1-321)
chain: MADRDSGSEQGGAALGSGGSLGHPGSGSGSGGGGGGGGGGGGSGGGGGAPGGLQHETQELASKRVDIQNKRFYLDVKQNAKGRFLKIAEVGAGGNKSRLTLSMSVAVEFRDYLGDFIEHYAQLGPSQPPDLAQAQDEPRRALKSEFLVRENRKYYMDLKENQRGRFLRIRQTVNRGPGLGSTQGQTIALPAQGLIEFRDALAKLIDDYGVEEEPAELPEGTSLTVDNKRFFFDVGSNKYGVFMRVSEVKPTYRNSITVPYKVWAKFGHTFCKYSEEMKKIQEKQREKRAACEQLHQQQQQQQEETTAATLLLQGEEEGEED
